Data: PMC12040169 (PLOS Biology, 2025)
Some of the results follow.

test system: T1, CTL2-GFP (C. trachomatis L2/434/Bu, GFP-expressing); set-up: species or system HeLa; Intracellular C. trachomatis growth in HeLa cells, bulk GFP fluorescence relative to DMSO; conditions: bulk GFP, single well; 28.5 h, 10 µM; inhibitor
T1 construct: L2/434/Bu, GFP-expressing

| SMILES | % of control remaining |
| --- | --- |
| Cc1cc(C)n(CCNC(=O)c2ncoc2-c2ccc(F)cc2)n1 [CBK282356] | 117.239% |
| Cc1ccc(C(=O)N2CN(C(=O)CN3CCOCC3)CC(C)(C)C2)cc1 [CBK039190] | 149.873% |
| O=[N+]([O-])c1ccc(S(=O)(=O)NCCSCc2cccc(Cl)c2)cc1 [CBK268066] | 95.6921% |
| CC(C)c1nsc(NS(=O)(=O)Cc2ccccc2)n1 [CBK051188] | 101.716% |
| COc1ccc(-c2c[nH]c([C@@H]3COCCN3Cc3cccc(C#N)c3)n2)cc1 [CBK289298] | 134.985% |
| COc1ccc(Sc2cc(C(F)(F)F)ccn2)cc1OC [CBK093762] | 95.2101% |
| O=C(CN1C(=O)c2ccccc2C1=O)Nc1sc2c(c1C(=O)NCc1ccco1)CCCC2 [CBK265670] | 100% |
| C(=C\c1nccnc1OCCc1c[nH]c2ccccc12)/c1ccccc1 [CBK106872] | 111.486% |
| CC(=O)c1cccc(NC(=O)N(CCO)C2CCc3ccccc32)c1 (stereo not drawn) [CBK305517] | 127.061% |
| CCN(CC)c1ccc(C(=O)CN2CCN(c3nccnc3OCCN3CCOCC3)CC2)cc1 [CBK082898T] | 94.6762% |
| O=C(c1cc(S(=O)(=O)N2CCOCC2)ccc1Cl)N1CCCC(CO)C1 (stereo not drawn) [CBK304236] | 136.531% |
| Cc1c(-c2cc(C(F)F)n3nc(CCC(=O)O)nc3n2)cnn1C [CBK286888] | 133.392% |
| CC(C)[C@H]1CN(Cc2ccco2)CCN1Cc1ccco1 [CBK284271] | 135.217% |
| CCc1c(C(=O)NC2CCCOC2)[nH]c2ccc(F)cc12 (stereo not drawn) [CBK283115] | 89.6347% |
| COCOc1ccc(-c2nccnc2OC)cc1 [CBK106914] | 103.994% |
| CCCS(=O)(=O)NC1CC(C)(C)Cc2c1cnn2-c1ccccc1 (stereo not drawn) [CBK307265] | 109.522% |
| CC1CCC(N(CCCN)Cc2ccco2)CC1C (stereo not drawn) [CBK268947] | 162.516% |
| CC(=O)Nc1cccc(CN2CCCC(CO)C2)c1 (stereo not drawn) [CBK305527] | 112.764% |
| CCc1nc2c(Oc3nc4ccccc4s3)cccn2c1N(C)C(=O)C(C)C [CBK147765] | 107.128% |
| COc1cc2c(cc1OC)C1=NNC(=O)C1=NC(C)(C)C2 [CBK288353] | 33.9514% |

| SMILES | % of control remaining |
| --- | --- |
| CCn1nc(NC(=O)C2Cc3ccccc3CN2C)cc1C (stereo not drawn) [CBK282133] | 168.566% |
| CC(=O)Nc1ccc(/N=C/c2ccc(Cl)cc2)cc1 [CBK015166] | 96.3428% |
| O=c1[nH]c(=O)c2cc(S(=O)(=O)NCC3CCN(Cc4ccccc4)C3)ccc2[nH]1 (stereo not drawn) [CBK286384] | 133.647% |
| O=C(COc1cccnc1)N1CCCc2ccccc21 [CBK200258] | 120.568% |
| O=C(NCCn1cccn1)N1CCC(Cc2ccc(F)cc2)CC1 [CBK304381] | 79.9972% |
| COc1ccc(O)c(CN(C)CCN(C)C)c1 [CBK261854] | 113.589% |
| CC1CC1C(=O)N1CCCC(c2nn(C)c3ncccc23)C1 (stereo not drawn) [CBK282167] | 128.832% |
| CCc1nn(CC(=O)N2CCCC2)c(=O)c2cc3occc3n12 [CBK283748] | 126.113% |
| CNC(=O)C1CCCCN1C(=O)c1cn(CCOC)c2ccccc12 (stereo not drawn) [CBK306308] | 96.5226% |
| O=c1ccc2ccc(-c3ccsc3)nc2[nH]1 [CBK073710] | 127.035% |
| CC(C)(C)OC(=O)N1CCC(Oc2nccnc2OCc2ccc(Cl)cc2F)CC1 [CBK163968] | 106.71% |
| O=c1[nH]c2ncc(-c3cncc4ccccc34)nc2n1CCCO [CBK064814] | 89.9951% |
| Cn1c(CN2CCOCC2)nnc1SCC(=O)Nc1cccc(F)c1 [CBK269629] | 166.335% |
| O=S(=O)(Nc1ccc2[nH]ccc2c1)c1c(Cl)cc(C(F)(F)F)cc1Cl [CBK156328] | 115.715% |
| CCNS(=O)(=O)C1CCN(c2cc(C#N)ccc2C(F)(F)F)C1 (stereo not drawn) [CBK305402] | 93.9177% |
| O=C(Nc1ccc(Br)cc1C(=O)O)c1ccc2c(c1)C(=O)N(Cc1cccnc1)C2=O [CBK266776] | 131.111% |
| COc1ccc(CCC(=O)Nc2cccc(OCCC3CCNCC3)c2)cc1OC [CBK138350] | 118.057% |
| COc1ccc(CNC(=O)NC(=O)C2CCN(S(C)(=O)=O)CC2)c(OC)c1 [CBK034861] | 138.811% |
| O=C(NCc1ccc2c(c1)CCN2C(=O)c1ccncc1)c1cccc(F)c1 [CBK288586] | 113.05% |

Quoted from the entries so far for reference:

| SMILES | % of control remaining |
| --- | --- |
| COc1cc2c(cc1OC)C1=NNC(=O)C1=NC(C)(C)C2 [CBK288353] | 33.9514% |
| CCn1nc(NC(=O)C2Cc3ccccc3CN2C)cc1C (stereo not drawn) [CBK282133] | 168.566% |
| CC(=O)Nc1ccc(/N=C/c2ccc(Cl)cc2)cc1 [CBK015166] | 96.3428% |
| O=c1[nH]c(=O)c2cc(S(=O)(=O)NCC3CCN(Cc4ccccc4)C3)ccc2[nH]1 (stereo not drawn) [CBK286384] | 133.647% |
| O=C(COc1cccnc1)N1CCCc2ccccc21 [CBK200258] | 120.568% |
| O=C(NCCn1cccn1)N1CCC(Cc2ccc(F)cc2)CC1 [CBK304381] | 79.9972% |
| COc1ccc(O)c(CN(C)CCN(C)C)c1 [CBK261854] | 113.589% |
| CC1CC1C(=O)N1CCCC(c2nn(C)c3ncccc23)C1 (stereo not drawn) [CBK282167] | 128.832% |
| CCc1nn(CC(=O)N2CCCC2)c(=O)c2cc3occc3n12 [CBK283748] | 126.113% |
| CNC(=O)C1CCCCN1C(=O)c1cn(CCOC)c2ccccc12 (stereo not drawn) [CBK306308] | 96.5226% |
